# Data as given in PubChem BioAssay AID1053208 (Peter MacCallum Cancer Centre, 2014).
# Test: 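Synthetic lethal interactions between gene loss and doxorubicin in osteosarcoma cells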 (primary screen)
# Cells: mouse osteosarcoma cells, early-passage culture from an engineered mouse model of fibroblastic bone tumour
# Reagents: siRNA pool against mouse genes, 40 nM
# Time to read-out: about 120 h (48 h before drug, then 72 h with drug)
# Conditions: doxorubicin 100 nM for 72 h, roughly 30-40% inhibitory dose
# Read-out: 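Viability read as ATP luminescence after 72 h of 100 nM doxorubicin or none, duplicate wells averaged, scaled to non-targeting siRNA, then expressed as robust z-scores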
# Reading the numbers: viability z-score with doxorubicin: higher = more viable cells under doxorubicin; viability z-score without drug: higher = more viable cells with knock-down alone
# Rule for the call: 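a pool counts as active when its viability z-score with doxorubicin is -2 or below and its z-score without drug lies between -2 and 2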
# The deposit covers about 17,000 reagents; shown is an unselected part. 788 of them (4.7%) were called active. 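Calls rest on z-score classes alone; an extra cut-off of viability at most 70% of control was not applied to them.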 The numbers tell different reagents against one gene apart. Further read-outs or replicates are left out here.
gene,reagent,combined z-score class,viability z-score with doxorubicin,viability z-score without drug,outcome
Ola1 (Obg-like ATPase 1),1,no change with or without drug,1.57,0.84,inactive
"Coro1a (coronin, actin binding protein 1A)",1,no change with or without drug,1.35,0,inactive
BC106179 (cDNA sequence BC106179),1,no change with or without drug,-1.24,-0.51,inactive
Or8s2 (olfactory receptor family 8 subfamily S member 2),1,no change with or without drug,-0.22,-0.34,inactive
Ralbp1 (ralA binding protein 1),1,no change with or without drug,1.46,0.84,inactive
Pds5b (PDS5 cohesin associated factor B),1,no change with or without drug,-1.57,-1.18,inactive
Ebag9 (estrogen receptor-binding fragment-associated gene 9),1,no change with or without drug,1.8,0,inactive
Plp1 (proteolipid protein (myelin) 1),1,no change with or without drug,1.35,1.18,inactive
Or8g23 (olfactory receptor family 8 subfamily G member 23),1,no change with or without drug,-0.9,-0.51,inactive
4833414E09Rik (RIKEN cDNA 4833414E09 gene),1,no change with or without drug,-0.79,-0.51,inactive
"Itpk1 (inositol 1,3,4-triphosphate 5/6 kinase)",1,no change with or without drug,-1.35,-1.18,inactive
Mtmr10 (myotubularin related protein 10),1,no change with or without drug,0.22,-0.17,inactive
Apip (APAF1 interacting protein),1,no change with or without drug,-1.8,-1.52,inactive
Rnf13 (ring finger protein 13),1,no change with or without drug,-0.34,-0.51,inactive
Neurl3 (neuralized E3 ubiquitin protein ligase 3),1,no change with or without drug,-1.8,-0.17,inactive
Dnaaf9 (dynein axonemal assembly factor 9),1,no change with or without drug,-1.12,1.18,inactive
Ptprc (protein tyrosine phosphatase receptor type C),1,no change with or without drug,1.12,0.17,inactive
"Supt4b (SPT4B, DSIF elongation factor subunit)",1,no change with or without drug,0.34,0.51,inactive
Rps5 (ribosomal protein S5),1,low cell count with and without drug,-5.62,-5.4,inactive
Syt6 (synaptotagmin VI),1,no change with or without drug,-1.8,-1.18,inactive
Rnpep (arginyl aminopeptidase (aminopeptidase B)),1,no change with or without drug,-1.12,-1.18,inactive
Arglu1 (arginine and glutamate rich 1),1,low cell count with doxorubicin only,-2.92,-0.84,active
Fscn2 (fascin actin-bundling protein 2),1,no change with or without drug,-0.45,-1.18,inactive
"H2-Ab1 (histocompatibility 2, class II antigen A, beta 1)",1,low cell count with doxorubicin only,-2.02,-1.18,active
"H2-Ab1 (histocompatibility 2, class II antigen A, beta 1)",2,no change with or without drug,0.9,1.52,inactive
Gdf11 (growth differentiation factor 11),1,no change with or without drug,0.34,0.17,inactive
Rrs1 (ribosome biogenesis regulator 1),1,no change with or without drug,0.9,0.67,inactive
Or52ac1 (olfactory receptor family 52 subfamily AC member 1),1,no change with or without drug,0.56,1.52,inactive
"Acad9 (acyl-Coenzyme A dehydrogenase family, member 9)",1,no change with or without drug,0.9,0.17,inactive
Npas1 (neuronal PAS domain protein 1),1,no change with or without drug,1.01,0.34,inactive
Slc29a1,1,high cell count without drug only,-0.45,2.7,inactive
"Ddx3x (DEAD box helicase 3, X-linked)",1,no change with or without drug,0.45,0.51,inactive
"Cacng1 (calcium channel, voltage-dependent, gamma subunit 1)",1,no change with or without drug,0,1.18,inactive
Rftn1 (raftlin lipid raft linker 1),1,no change with or without drug,0.56,1.01,inactive

Targets above whose target name starts with S or s:
gene,reagent,combined z-score class,viability z-score with doxorubicin,viability z-score without drug,outcome
"Supt4b (SPT4B, DSIF elongation factor subunit)",1,no change with or without drug,0.34,0.51,inactive
Syt6 (synaptotagmin VI),1,no change with or without drug,-1.8,-1.18,inactive
Slc29a1,1,high cell count without drug only,-0.45,2.7,inactive
